# Data from PMC7104407.
# Protein sequences, listed by entry. Tags and fused reporters are not part of them. Lines headed by an entry give the natural chain unless they say otherwise; changes in a name come on top.
# UniProt Q13547: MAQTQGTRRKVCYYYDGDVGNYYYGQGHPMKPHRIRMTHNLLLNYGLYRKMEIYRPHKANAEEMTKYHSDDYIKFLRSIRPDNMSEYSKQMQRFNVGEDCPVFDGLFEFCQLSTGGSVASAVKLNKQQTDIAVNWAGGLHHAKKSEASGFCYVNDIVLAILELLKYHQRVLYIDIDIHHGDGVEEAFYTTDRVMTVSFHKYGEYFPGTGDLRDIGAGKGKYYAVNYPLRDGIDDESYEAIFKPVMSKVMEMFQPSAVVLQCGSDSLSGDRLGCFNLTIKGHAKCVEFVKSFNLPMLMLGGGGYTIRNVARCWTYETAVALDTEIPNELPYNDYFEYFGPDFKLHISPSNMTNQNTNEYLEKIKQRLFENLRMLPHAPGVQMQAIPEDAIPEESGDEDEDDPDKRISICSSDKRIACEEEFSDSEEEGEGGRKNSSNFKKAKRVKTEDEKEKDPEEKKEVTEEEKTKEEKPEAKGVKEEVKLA
# UniProt P50750: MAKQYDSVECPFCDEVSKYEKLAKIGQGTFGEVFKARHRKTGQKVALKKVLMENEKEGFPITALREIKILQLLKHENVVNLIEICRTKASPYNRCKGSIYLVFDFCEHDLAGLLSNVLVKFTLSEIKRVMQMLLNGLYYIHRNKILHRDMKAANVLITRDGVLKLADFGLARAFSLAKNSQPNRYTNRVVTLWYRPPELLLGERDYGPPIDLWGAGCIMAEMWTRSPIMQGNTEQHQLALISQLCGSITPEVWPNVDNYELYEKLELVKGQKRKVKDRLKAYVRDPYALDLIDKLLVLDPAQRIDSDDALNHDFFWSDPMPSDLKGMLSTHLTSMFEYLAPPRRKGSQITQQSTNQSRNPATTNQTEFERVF
# UniProt O15379: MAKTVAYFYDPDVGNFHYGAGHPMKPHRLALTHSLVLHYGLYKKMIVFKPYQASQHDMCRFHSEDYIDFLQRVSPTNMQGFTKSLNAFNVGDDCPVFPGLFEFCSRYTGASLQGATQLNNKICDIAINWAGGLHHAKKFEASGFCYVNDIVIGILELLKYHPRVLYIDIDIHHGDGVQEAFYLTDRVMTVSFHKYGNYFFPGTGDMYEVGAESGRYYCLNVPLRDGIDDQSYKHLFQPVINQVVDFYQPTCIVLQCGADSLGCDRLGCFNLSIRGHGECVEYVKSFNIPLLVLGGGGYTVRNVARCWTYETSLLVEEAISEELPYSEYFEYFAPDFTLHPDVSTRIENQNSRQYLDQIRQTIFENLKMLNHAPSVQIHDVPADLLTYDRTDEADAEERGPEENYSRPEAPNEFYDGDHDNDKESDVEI
# UniProt Q96CJ1: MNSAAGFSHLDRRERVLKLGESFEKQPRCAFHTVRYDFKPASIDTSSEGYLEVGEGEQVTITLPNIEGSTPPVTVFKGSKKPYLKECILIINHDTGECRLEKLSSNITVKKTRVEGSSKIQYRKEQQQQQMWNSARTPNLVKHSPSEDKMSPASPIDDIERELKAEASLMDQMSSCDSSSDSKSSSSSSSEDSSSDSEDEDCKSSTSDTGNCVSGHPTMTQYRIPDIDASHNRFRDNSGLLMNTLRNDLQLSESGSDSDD
# Results are given in words; binding and its absence hold for the method and conditions named. In cells and extracts the contact can be indirect. Some results given as binding are weak or reduced against the parent protein; the word gives no strength.
# What was measured:
# [1] = target: DBC1, ectopically expressed (human) (UniProt Q8N163); assay: co-IP; co-IP and Western blot of HDAC1-8 with ELL or with DBC1 in 293T cells
# [2] = target: ELL, ectopically expressed (human) (UniProt P55199); assay: as above
# [3] = target: FLAG-HA−DBC1 (human) (UniProt Q8N163); assay: co-IP; IP from nuclear extract of the FLAG-HA−DBC1 stable cell line, then immunoblotting
# [4] = target: ELL, endogenous (human) (UniProt P55199); assay: co-IP; endogenous ELL and HDAC3, with overexpression of DBC1 (SI Appendix, Fig. S4K)
# [5] = target: ELL, ectopically expressed (human) (UniProt P55199); assay: co-IP; IP of ELL from 293T cells with increasing expression of ectopic DBC1; blots for HDAC3 and DBC1
# [6] = target: ELL, ectopically expressed (human) (UniProt P55199); assay: co-IP; indicated ELL domains with HDAC3 within mammalian cells
# [7] = target: ELL elongation-deficient domain (374 to 621) (human) (UniProt P55199); assay: as above
# [8] = target: ELL, ectopically expressed (human) (UniProt P55199); assay: co-IP; one partner ectopic, the other endogenous (SI Appendix, Fig. S3H and S3I)
substance,measurement,setting,value
HDAC1 (from UniProt Q13547 1-482) (enzyme),binding,[1],binds
same,binding,[2],binds
CDK9 (from UniProt P50750 1-372),binding,[3],binds
EAF1 (from UniProt Q96JC9 1-268),binding,[3],binds
"HDAC3 (co-IPs of Fig. 3C, Fig. 3D and SI Fig. S4K) (from UniProt O15379 1-428) (enzyme)",binding,[4],binds
same,binding,[5],binds
same,binding,[6],binds
same,binding,[7],no binding
HDAC5 (from UniProt Q9UQL6 1-1122) (enzyme),binding,[2],binds
"HDAC3, endogenous (from UniProt O15379 1-428) (enzyme)",binding,[8],binds
"HDAC3, ectopically expressed (from UniProt O15379 1-428) (enzyme)",binding,[1],binds
same,binding,[2],binds
EAF2 (from UniProt Q96CJ1 1-260),binding,[3],binds
